Measured values as given in the supplement of paper PMC6411743.
± gives the standard deviation of the averaged measurements. The entries are a selection whose mix differs from that of the whole data set.

The chains behind the UniProt entries cited, without tags or fusion partners. Where a name states a change or a piece, a line headed by the entry shows the natural chain unless it says otherwise.
UniProt P15104, whole entry: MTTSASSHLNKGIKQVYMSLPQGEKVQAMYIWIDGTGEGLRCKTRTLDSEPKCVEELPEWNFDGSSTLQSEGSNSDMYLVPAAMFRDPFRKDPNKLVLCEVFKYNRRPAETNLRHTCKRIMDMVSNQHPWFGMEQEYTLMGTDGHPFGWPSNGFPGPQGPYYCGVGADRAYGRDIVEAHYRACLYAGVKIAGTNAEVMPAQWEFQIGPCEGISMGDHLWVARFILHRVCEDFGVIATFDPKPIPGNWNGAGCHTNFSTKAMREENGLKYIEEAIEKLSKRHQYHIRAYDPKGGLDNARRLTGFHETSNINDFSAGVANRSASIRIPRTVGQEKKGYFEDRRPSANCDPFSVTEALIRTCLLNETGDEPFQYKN
UniProt P13051, whole entry: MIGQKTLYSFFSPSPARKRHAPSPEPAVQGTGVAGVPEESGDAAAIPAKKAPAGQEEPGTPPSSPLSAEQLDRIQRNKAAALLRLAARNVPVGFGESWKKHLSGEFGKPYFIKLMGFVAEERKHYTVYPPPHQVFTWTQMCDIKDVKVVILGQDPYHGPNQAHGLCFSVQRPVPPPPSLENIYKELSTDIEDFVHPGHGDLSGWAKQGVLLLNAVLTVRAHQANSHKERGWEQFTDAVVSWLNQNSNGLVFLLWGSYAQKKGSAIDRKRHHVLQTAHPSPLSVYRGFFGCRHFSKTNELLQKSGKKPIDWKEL
UniProt P09382, whole entry: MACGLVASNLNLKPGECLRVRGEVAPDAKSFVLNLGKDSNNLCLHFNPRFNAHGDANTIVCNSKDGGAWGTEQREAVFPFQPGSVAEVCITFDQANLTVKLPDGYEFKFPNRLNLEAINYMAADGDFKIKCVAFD
UniProt P04066: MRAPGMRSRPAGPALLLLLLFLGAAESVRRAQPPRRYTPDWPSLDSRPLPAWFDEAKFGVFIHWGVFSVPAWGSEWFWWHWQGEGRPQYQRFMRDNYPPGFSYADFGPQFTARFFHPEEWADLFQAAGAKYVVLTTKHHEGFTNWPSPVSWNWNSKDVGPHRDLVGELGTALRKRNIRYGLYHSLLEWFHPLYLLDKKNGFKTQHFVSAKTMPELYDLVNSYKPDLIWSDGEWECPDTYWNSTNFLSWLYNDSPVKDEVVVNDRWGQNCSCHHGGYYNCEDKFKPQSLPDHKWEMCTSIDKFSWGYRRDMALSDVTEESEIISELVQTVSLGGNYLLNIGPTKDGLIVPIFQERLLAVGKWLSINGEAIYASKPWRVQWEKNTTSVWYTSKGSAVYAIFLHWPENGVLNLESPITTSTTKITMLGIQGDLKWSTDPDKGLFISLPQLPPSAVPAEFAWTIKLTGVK
UniProt P09012, whole entry: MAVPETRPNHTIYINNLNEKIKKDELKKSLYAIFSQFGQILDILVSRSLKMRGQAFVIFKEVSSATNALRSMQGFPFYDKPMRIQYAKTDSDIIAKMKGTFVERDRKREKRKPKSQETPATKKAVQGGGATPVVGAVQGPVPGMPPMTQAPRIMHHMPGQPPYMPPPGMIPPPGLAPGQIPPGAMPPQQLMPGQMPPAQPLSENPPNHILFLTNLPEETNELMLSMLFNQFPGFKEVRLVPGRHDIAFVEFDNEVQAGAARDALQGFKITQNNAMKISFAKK
UniProt Q71UI9, whole entry, looked up: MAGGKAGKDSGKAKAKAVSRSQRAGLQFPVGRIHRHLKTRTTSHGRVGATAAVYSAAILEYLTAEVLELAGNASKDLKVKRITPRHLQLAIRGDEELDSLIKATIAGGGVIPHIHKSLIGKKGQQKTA
UniProt P16455, whole entry: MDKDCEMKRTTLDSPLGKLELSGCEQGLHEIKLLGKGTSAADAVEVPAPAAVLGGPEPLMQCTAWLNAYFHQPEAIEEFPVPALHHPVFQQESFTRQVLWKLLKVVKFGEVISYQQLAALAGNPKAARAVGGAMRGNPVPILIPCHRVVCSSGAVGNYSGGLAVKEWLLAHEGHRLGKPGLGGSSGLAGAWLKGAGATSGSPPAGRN
UniProt P10155: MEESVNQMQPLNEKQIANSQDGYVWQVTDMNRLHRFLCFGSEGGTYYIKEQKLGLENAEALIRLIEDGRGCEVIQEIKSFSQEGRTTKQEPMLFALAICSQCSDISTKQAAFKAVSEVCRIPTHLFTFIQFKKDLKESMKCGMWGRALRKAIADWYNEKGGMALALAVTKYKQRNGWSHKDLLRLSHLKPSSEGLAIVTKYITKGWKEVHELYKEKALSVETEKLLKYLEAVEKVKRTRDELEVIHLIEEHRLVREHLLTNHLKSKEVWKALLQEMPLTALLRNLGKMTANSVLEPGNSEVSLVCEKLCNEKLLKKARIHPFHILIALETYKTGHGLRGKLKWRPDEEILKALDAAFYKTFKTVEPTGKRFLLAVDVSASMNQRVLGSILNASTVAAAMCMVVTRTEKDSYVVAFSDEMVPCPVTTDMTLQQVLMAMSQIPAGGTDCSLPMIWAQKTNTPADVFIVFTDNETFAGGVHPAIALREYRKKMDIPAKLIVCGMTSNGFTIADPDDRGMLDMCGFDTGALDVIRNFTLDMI
UniProt P14854, whole entry: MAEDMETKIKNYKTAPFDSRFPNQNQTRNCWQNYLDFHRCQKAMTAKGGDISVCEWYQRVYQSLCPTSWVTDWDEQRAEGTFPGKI
UniProt P06729: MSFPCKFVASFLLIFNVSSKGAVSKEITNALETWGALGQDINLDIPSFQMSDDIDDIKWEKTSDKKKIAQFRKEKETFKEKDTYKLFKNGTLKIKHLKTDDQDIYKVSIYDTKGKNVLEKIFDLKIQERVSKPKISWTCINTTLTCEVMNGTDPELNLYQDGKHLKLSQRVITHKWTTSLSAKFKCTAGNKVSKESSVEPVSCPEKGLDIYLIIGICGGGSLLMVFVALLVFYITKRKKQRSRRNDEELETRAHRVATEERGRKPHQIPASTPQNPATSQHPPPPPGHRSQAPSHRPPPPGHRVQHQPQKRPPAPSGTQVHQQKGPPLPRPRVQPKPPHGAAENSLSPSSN
UniProt P07195, whole entry, looked up: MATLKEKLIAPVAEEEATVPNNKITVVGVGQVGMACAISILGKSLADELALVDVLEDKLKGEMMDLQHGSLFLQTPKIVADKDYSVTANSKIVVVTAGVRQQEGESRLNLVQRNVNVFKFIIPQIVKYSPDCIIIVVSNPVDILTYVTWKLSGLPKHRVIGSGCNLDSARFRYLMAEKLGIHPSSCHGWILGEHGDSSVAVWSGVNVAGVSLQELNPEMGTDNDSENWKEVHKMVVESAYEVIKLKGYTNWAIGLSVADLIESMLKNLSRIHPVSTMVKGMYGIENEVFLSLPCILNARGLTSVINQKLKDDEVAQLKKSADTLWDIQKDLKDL
UniProt P04183: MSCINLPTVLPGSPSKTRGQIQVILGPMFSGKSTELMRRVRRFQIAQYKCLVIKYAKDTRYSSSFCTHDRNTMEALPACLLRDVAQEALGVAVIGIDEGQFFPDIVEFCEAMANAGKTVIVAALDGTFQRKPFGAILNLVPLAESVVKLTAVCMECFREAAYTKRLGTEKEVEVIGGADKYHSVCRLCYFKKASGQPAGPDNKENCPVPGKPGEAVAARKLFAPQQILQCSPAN
UniProt P09960: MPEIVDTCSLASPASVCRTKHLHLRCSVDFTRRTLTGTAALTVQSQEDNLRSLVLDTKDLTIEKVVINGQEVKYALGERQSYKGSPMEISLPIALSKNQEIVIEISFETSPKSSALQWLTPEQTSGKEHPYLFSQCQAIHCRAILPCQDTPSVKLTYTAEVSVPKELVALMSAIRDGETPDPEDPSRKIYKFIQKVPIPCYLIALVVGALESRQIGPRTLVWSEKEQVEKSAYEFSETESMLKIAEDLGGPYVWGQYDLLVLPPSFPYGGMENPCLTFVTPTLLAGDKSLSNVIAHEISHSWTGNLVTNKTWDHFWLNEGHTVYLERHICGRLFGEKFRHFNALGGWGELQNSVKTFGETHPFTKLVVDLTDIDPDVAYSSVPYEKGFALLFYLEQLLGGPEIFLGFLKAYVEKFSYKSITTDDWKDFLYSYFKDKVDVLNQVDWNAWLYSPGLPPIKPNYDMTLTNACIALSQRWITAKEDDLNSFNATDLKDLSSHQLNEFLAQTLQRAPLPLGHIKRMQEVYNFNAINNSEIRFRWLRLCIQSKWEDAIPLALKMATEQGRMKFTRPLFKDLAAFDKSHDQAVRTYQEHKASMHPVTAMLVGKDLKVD
UniProt Q8IVS2: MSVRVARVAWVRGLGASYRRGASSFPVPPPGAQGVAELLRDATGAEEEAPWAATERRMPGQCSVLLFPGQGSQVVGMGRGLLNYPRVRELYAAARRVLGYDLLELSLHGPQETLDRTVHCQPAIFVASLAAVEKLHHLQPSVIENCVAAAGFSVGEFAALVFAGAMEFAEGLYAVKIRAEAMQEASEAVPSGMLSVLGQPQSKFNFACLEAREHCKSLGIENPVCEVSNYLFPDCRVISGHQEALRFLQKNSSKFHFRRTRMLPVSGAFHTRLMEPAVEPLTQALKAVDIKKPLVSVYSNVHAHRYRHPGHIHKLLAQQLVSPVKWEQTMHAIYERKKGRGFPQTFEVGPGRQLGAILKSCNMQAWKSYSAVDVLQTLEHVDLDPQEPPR
UniProt P08651, whole entry: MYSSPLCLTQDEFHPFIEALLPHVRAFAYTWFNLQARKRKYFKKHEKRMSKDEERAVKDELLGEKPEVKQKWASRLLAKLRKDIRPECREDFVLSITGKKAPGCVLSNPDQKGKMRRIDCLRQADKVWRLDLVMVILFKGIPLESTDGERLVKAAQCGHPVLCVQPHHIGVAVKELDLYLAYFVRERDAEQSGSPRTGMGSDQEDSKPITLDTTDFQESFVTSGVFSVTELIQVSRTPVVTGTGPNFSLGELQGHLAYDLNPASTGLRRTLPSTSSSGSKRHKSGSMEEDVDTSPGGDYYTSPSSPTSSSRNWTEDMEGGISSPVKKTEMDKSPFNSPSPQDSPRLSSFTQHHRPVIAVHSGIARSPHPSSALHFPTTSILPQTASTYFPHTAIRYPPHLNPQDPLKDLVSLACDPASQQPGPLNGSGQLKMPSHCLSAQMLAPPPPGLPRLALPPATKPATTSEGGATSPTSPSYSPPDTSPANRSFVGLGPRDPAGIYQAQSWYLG
UniProt P01137, whole entry: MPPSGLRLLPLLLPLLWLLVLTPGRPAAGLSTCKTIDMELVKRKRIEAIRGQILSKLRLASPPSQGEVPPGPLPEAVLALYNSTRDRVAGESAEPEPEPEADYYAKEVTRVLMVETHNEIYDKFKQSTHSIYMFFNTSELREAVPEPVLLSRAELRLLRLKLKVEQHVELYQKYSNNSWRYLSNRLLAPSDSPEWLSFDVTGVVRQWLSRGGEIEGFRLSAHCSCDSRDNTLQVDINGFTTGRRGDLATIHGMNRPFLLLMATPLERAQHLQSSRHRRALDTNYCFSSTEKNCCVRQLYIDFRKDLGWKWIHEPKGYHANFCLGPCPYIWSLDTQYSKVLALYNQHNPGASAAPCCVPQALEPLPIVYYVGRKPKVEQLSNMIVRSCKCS
UniProt P13196: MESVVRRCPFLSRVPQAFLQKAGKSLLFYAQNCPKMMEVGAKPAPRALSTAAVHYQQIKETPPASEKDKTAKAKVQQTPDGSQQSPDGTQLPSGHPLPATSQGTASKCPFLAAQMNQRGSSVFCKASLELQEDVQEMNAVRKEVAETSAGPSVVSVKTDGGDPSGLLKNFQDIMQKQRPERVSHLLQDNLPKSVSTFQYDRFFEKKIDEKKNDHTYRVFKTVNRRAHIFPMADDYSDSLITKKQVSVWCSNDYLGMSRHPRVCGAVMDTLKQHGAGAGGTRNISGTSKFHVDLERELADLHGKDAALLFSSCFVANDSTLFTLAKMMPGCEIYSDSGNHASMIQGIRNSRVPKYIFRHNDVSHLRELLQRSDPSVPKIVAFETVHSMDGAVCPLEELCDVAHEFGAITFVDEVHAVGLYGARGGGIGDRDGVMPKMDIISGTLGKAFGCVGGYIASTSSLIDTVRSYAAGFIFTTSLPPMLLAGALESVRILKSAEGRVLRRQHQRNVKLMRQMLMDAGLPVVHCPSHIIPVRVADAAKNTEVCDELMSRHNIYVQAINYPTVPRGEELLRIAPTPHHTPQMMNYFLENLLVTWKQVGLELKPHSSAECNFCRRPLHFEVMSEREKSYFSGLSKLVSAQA
UniProt P07108: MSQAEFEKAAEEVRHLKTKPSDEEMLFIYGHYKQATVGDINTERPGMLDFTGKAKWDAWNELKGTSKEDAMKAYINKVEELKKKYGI
UniProt P14324: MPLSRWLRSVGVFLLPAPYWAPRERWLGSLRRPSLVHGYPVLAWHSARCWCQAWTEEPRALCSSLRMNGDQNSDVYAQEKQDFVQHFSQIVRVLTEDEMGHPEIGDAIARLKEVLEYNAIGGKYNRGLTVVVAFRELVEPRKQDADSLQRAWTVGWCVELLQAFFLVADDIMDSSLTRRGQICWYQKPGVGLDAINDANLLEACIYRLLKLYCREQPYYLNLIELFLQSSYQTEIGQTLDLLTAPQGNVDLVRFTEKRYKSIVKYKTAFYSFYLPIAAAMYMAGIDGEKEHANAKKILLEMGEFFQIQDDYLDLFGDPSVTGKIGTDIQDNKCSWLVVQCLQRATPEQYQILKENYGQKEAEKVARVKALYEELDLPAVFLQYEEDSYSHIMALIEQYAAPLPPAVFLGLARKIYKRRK
UniProt P07919: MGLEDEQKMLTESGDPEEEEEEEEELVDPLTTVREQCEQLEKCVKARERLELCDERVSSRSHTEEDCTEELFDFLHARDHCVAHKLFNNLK

Compound: Nc1ncnc2c1ncn2[C@@H]1O[C@H](COP(=O)(O)OP(=O)(O)NP(=O)(O)O)[C@@H](O)[C@H]1O [adenylyl imidodiphosphate]
Assay: NP40-soluble protein abundance relative to vehicle (solubility fold change) (ratio); higher = more soluble protein in presence of AMP-PNP
Procedure, shortened: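 Values are fold changes against the detergent-processed vehicle, based on vsn-normalised intensities. Jurkat crude lysate was treated at eight concentrations from 0.1 to 10 mM (10 min at room temperature, then 3 min at 37 °C), solubilised with 0.8% NP40 and benzonase, ultracentrifuged and analysed by TMT-labelled LC-MS/MS over three independent experiments.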

Target	NP40-soluble protein abundance (concentration: 1mM)	NP40-soluble protein abundance (concentration: 2mM)	NP40-soluble protein abundance (concentration: 4mM)	NP40-soluble protein abundance (concentration: 6mM)	NP40-soluble protein abundance (concentration: 8mM)	NP40-soluble protein abundance (concentration: 10mM)
ANXA3 (UniProt P12429)	1.01 ± 0.035	1 ± 0.025	0.995 ± 0.027	1.01 ± 0.029	1.01 ± 0.019	0.993 ± 0.026
BAG2 (UniProt O95816)	1.09 ± 0.059	1.07 ± 0.095	1.02 ± 0.061	1 ± 0.07	0.967 ± 0.082	0.925 ± 0.067
SRF (UniProt P11831)	1.02 ± 0.024	1.05 ± 0.057	1.02 ± 0.045	1.03 ± 0.048	1.04 ± 0.059	1.05 ± 0.044
BPGM (UniProt P07738)	1.07 ± 0.13	0.992 ± 0.05	0.972 ± 0.048	0.995 ± 0.05	0.976 ± 0.03	0.955 ± 0.011
IGF2R (UniProt P11717)	0.999 ± 0.035	1.05 ± 0.093	0.998 ± 0.048	1.06 ± 0.029	1.04 ± 0.029	1.07 ± 0.068
ATP2A2 (UniProt P16615)	0.968 ± 0.015	0.927 ± 0.069	0.973 ± 0.018	0.967 ± 0.032	0.976 ± 0.021	0.953 ± 0.019
GLUL (UniProt P15104)	0.978 ± 0.029	0.989 ± 0.015	0.952 ± 0.017	0.951 ± 0.075	0.918 ± 0.044	0.915 ± 0.055
UniProt O95782 and related entries	0.994 ± 0.03	0.953 ± 0.058	1.07 ± 0.046	1.09 ± 0.044	1.13 ± 0.021	1.13 ± 0.056
UniProt P13051 and related entries	0.992 ± 0.058	0.987 ± 0.01	0.9971 ± 0.0073	1.08 ± 0.068	1.07 ± 0.043	1.06 ± 0.027
EPHX1 (UniProt P07099)	0.953 ± 0.024	0.957 ± 0.037	0.996 ± 0.041	0.952 ± 0.044	0.962 ± 0.081	0.956 ± 0.045
UniProt P13473-2	0.963 ± 0.026	0.998 ± 0.037	0.947 ± 0.03	0.965 ± 0.017	0.932 ± 0.029	0.928 ± 0.046
LGALS1 (UniProt P09382)	1.029 ± 0.0027	1.03 ± 0.011	0.984 ± 0.021	1 ± 0.037	0.998 ± 0.052	0.975 ± 0.045
PDIA4 (UniProt P13667)	0.983 ± 0.013	1 ± 0.023	0.934 ± 0.017	0.972 ± 0.022	0.928 ± 0.022	0.936 ± 0.042
UniProt P09488 and related entries	0.944 ± 0.031	0.913 ± 0.032	0.968 ± 0.032	1.06 ± 0.1	1.07 ± 0.061	1.02 ± 0.035
UniProt P0C869-6|P0C869-7|P0C869-8	1.01 ± 0.014	1.01 ± 0.057	1.02 ± 0.049	0.987 ± 0.013	0.997 ± 0.056	0.993 ± 0.024
ADA (UniProt P00813)	0.991 ± 0.026	0.952 ± 0.018	0.969 ± 0.0092	0.993 ± 0.04	0.986 ± 0.068	0.956 ± 0.098
UniProt O95905 and related entries	0.9484 ± 0.0046	0.9697 ± 0.0075	0.97062 ± 3.8e-05	0.9848 ± 0.0086	0.998 ± 0.021	0.991 ± 0.029
FUCA1 (UniProt P04066)	0.956 ± 0.022	0.937 ± 0.022	0.969 ± 0.036	1.01 ± 0.05	1.12 ± 0.094	1 ± 0.074
SNRPA (UniProt P09012)	0.997 ± 0.034	1.03 ± 0.073	0.954 ± 0.067	0.926 ± 0.03	0.909 ± 0.017	0.91 ± 0.051
EPRS (UniProt P07814)	0.984 ± 0.079	0.935 ± 0.12	0.933 ± 0.11	0.934 ± 0.14	0.923 ± 0.13	0.913 ± 0.17

Already shown: entries from further up.
Target	NP40-soluble protein abundance (concentration: 1mM)	NP40-soluble protein abundance (concentration: 2mM)	NP40-soluble protein abundance (concentration: 4mM)	NP40-soluble protein abundance (concentration: 6mM)	NP40-soluble protein abundance (concentration: 8mM)	NP40-soluble protein abundance (concentration: 10mM)
BAG2 (UniProt O95816)	1.09 ± 0.059	1.07 ± 0.095	1.02 ± 0.061	1 ± 0.07	0.967 ± 0.082	0.925 ± 0.067
SRF (UniProt P11831)	1.02 ± 0.024	1.05 ± 0.057	1.02 ± 0.045	1.03 ± 0.048	1.04 ± 0.059	1.05 ± 0.044
BPGM (UniProt P07738)	1.07 ± 0.13	0.992 ± 0.05	0.972 ± 0.048	0.995 ± 0.05	0.976 ± 0.03	0.955 ± 0.011
IGF2R (UniProt P11717)	0.999 ± 0.035	1.05 ± 0.093	0.998 ± 0.048	1.06 ± 0.029	1.04 ± 0.029	1.07 ± 0.068
ATP2A2 (UniProt P16615)	0.968 ± 0.015	0.927 ± 0.069	0.973 ± 0.018	0.967 ± 0.032	0.976 ± 0.021	0.953 ± 0.019

More results follow:

Target	NP40-soluble protein abundance (concentration: 1mM)	NP40-soluble protein abundance (concentration: 2mM)	NP40-soluble protein abundance (concentration: 4mM)	NP40-soluble protein abundance (concentration: 6mM)	NP40-soluble protein abundance (concentration: 8mM)	NP40-soluble protein abundance (concentration: 10mM)
P0C0S5 and related entries (UniProt Q71UI9+P0C0S5)	0.922 ± 0.051	0.957 ± 0.046	0.936 ± 0.019	1.01 ± 0.031	1.07 ± 0.015	1.1 ± 0.037
UniProt P16930 and related entries	0.978 ± 0.039	0.891 ± 0.07	0.946 ± 0.01	0.965 ± 0.036	0.975 ± 0.021	0.932 ± 0.029
RPS2 (UniProt P15880)	0.954 ± 0.052	0.881 ± 0.11	0.903 ± 0.088	0.906 ± 0.059	0.876 ± 0.04	0.882 ± 0.098
MGMT (UniProt P16455)	1 ± 0.046	1.06 ± 0.038	0.982 ± 0.044	0.97 ± 0.023	0.9589 ± 0.0089	0.961 ± 0.048
UniProt P05026 and related entries	1.05 ± 0.042	1.09 ± 0.091	1.04 ± 0.021	1.07 ± 0.028	1.04 ± 0.029	1.09 ± 0.043
UniProt P10155	0.957 ± 0.057	0.909 ± 0.019	0.95 ± 0.026	0.953 ± 0.056	0.979 ± 0.03	0.946 ± 0.021
SP1 (UniProt P08047)	1.01 ± 0.035	1.08 ± 0.098	1 ± 0.045	1.02 ± 0.026	0.99 ± 0.018	1.07 ± 0.031
COX6B1 (UniProt P14854)	0.864 ± 0.041	0.926 ± 0.032	0.916 ± 0.063	0.86 ± 0.055	0.821 ± 0.016	0.839 ± 0.019
UniProt P09471-2	0.956 ± 0.045	0.928 ± 0.075	0.965 ± 0.063	0.939 ± 0.057	0.92 ± 0.045	0.947 ± 0.055
UniProt P00390 and related entries	0.968 ± 0.038	0.89 ± 0.065	0.925 ± 0.04	0.994 ± 0.057	1 ± 0.025	0.97 ± 0.031
UniProt P10619 and related entries	0.979 ± 0.018	0.987 ± 0.086	0.984 ± 0.044	1.05 ± 0.11	1.06 ± 0.083	1.07 ± 0.13
RALA (UniProt P11233)	1.04 ± 0.019	0.987 ± 0.062	1 ± 0.057	1 ± 0.013	0.979 ± 0.012	0.968 ± 0.053
IMPDH2 (UniProt P12268)	0.962 ± 0.071	0.851 ± 0.086	0.827 ± 0.14	0.831 ± 0.13	0.867 ± 0.11	0.834 ± 0.15
UniProt P00338-2|P00338-3	0.917 ± 0.095	0.806 ± 0.0098	0.795 ± 0.11	0.96 ± 0.16	1.03 ± 0.087	0.877 ± 0.12
UniProt P06729	0.996 ± 0.069	1.15 ± 0.33	1.02 ± 0.13	1.23 ± 0.18	1.19 ± 0.14	1.28 ± 0.19
UniProt P08621 and related entries	0.973 ± 0.022	0.976 ± 0.035	1.01 ± 0.023	1.12 ± 0.05	1.18 ± 0.059	1.28 ± 0.09
LDHB (UniProt P07195)	1.01 ± 0.019	0.92 ± 0.025	0.947 ± 0.02	0.973 ± 0.036	0.969 ± 0.024	0.943 ± 0.013
UniProt P00374 and related entries	1.02 ± 0.055	1.01 ± 0.041	1.03 ± 0.039	0.951 ± 0.03	0.967 ± 0.056	1.01 ± 0.03
UniProt P04183 and related entries	1 ± 0.048	1.07 ± 0.11	1.04 ± 0.053	1.02 ± 0.037	1.02 ± 0.033	1.02 ± 0.038
UniProt P09960 and related entries	0.978 ± 0.029	0.879 ± 0.098	0.925 ± 0.024	0.954 ± 0.051	0.969 ± 0.026	0.909 ± 0.04

Target	NP40-soluble protein abundance (concentration: 1mM)	NP40-soluble protein abundance (concentration: 2mM)	NP40-soluble protein abundance (concentration: 4mM)	NP40-soluble protein abundance (concentration: 6mM)	NP40-soluble protein abundance (concentration: 8mM)	NP40-soluble protein abundance (concentration: 10mM)
P00403 and related entries (UniProt Q8IVS2)	0.922 ± 0.029	0.782 ± 0.16	0.88 ± 0.03	0.893 ± 0.029	0.929 ± 0.021	0.873 ± 0.041
PRPS2 (UniProt P11908)	0.88 ± 0.064	0.797 ± 0.088	0.829 ± 0.066	0.837 ± 0.082	0.852 ± 0.035	0.814 ± 0.11
UniProt P09525 and related entries	0.97 ± 0.046	0.94 ± 0.022	0.987 ± 0.018	1.02 ± 0.081	1.05 ± 0.036	1 ± 0.029
UniProt P08651 and related entries	1.06 ± 0.022	1.04 ± 0.053	1.04 ± 0.046	1.033 ± 0.0072	1.04 ± 0.018	1.07 ± 0.02
CAPN1 (UniProt P07384)	0.976 ± 0.015	0.904 ± 0.095	0.968 ± 0.025	0.96 ± 0.019	0.978 ± 0.023	0.932 ± 0.034
NCK1 (UniProt P16333)	0.991 ± 0.016	0.961 ± 0.038	1.06 ± 0.016	1.05 ± 0.047	1.02 ± 0.035	1.01 ± 0.035
TGFB1 (UniProt P01137)	0.9779 ± 0.0078	0.9775 ± 0.0022	0.971 ± 0.015	0.992 ± 0.014	0.995 ± 0.017	0.9831 ± 0.008
UniProt P14618 and related entries	1.02 ± 0.077	0.854 ± 0.066	0.994 ± 0.073	0.888 ± 0.091	0.988 ± 0.034	0.875 ± 0.092
UniProt P12931 and related entries	0.984 ± 0.033	0.942 ± 0.074	0.987 ± 0.021	0.964 ± 0.019	1.01 ± 0.023	0.96 ± 0.023
ALAS1 (UniProt P13196)	0.966 ± 0.04	0.99 ± 0.037	0.969 ± 0.045	0.975 ± 0.053	0.973 ± 0.029	0.981 ± 0.063
UniProt P13674-2|P13674	1.01 ± 0.033	1.03 ± 0.014	1 ± 0.0065	0.985 ± 0.03	0.963 ± 0.011	0.988 ± 0.024
SNRPB2 (UniProt P08579)	0.992 ± 0.048	1.02 ± 0.051	1.03 ± 0.047	1.02 ± 0.023	1.08 ± 0.075	1.03 ± 0.051
UniProt P06126	0.992 ± 0.037	0.977 ± 0.045	0.995 ± 0.034	0.986 ± 0.038	1.03 ± 0.011	1.02 ± 0.029
ITGA4 (UniProt P13612)	0.982 ± 0.017	1.01 ± 0.063	0.975 ± 0.034	1.01 ± 0.052	1.01 ± 0.039	1.01 ± 0.047
DBI (UniProt P07108)	1.04 ± 0.064	1.06 ± 0.055	0.987 ± 0.015	0.96 ± 0.041	0.928 ± 0.025	0.997 ± 0.1
ZBTB48 (UniProt P10074)	0.981 ± 0.021	0.976 ± 0.012	0.952 ± 0.034	0.944 ± 0.058	0.92 ± 0.031	0.913 ± 0.061
UniProt P14324 and related entries	0.968 ± 0.027	0.895 ± 0.038	0.907 ± 0.033	0.978 ± 0.053	0.992 ± 0.035	0.937 ± 0.036
UniProt P04844 and related entries	0.962 ± 0.029	0.867 ± 0.076	0.925 ± 0.033	0.954 ± 0.031	0.964 ± 0.025	0.906 ± 0.021
UniProt P15529-2|P15529-3|P15529-4|P15529-5|P15529-6|P15529-7	1.004 ± 0.0032	1.09 ± 0.14	1 ± 0.037	1.05 ± 0.029	0.991 ± 0.033	1.06 ± 0.058
UQCRH (UniProt P07919)	0.962 ± 0.017	0.96 ± 0.03	0.937 ± 0.0064	0.9362 ± 0.005	0.909 ± 0.046	0.945 ± 0.023
